The data set can be described thus: Reactivity with vitamin B6. To be noted: after 20 hours, PBS, 37° C.; pyridoxal-5′-phosphate 50 μM, compound 0.5 μM.

In the case of `Cc1ncc2c(c1O)C(c1c(C)nn(-c3ccccc3)c1O)OC2` (centres unmarked) [compound 68, 1-(5-hydroxy-3-methyl-1-phenyl-1H-pyrazol-4-yl)-6-methyl-1,3-dihydro-furo[3,4-c]pyridin-7-ol], the “pyridoxal-5′-phosphate residual rate” value is reported as 97%.
Turning to `N=C(N)NN` [aminoguanidine, reference compound], the “pyridoxal-5′-phosphate residual rate” value stood at 0.2%.

(Values after patent US7645882B2, “Inhibitor of protein modification products formation” (priority 2003, dated 2010).)
